Results published in patent US20170290886A1, “TREATMENT OF NEURODEVELOPMENTAL DISORDERS” (Academia Sinica, priority 2016, published 2017).
For at least one compound, name, drawing or mass did not settle the structure.

System: MeCP2 SUMOylation
Assay: In vitro SUMOylation assay for CA1 tissue
Format: in vivo, rat
Settings: dexamethasone 30 ng/pl injected to CA1 area, 1 hr later; vs DMSO; FIG. 3e

With `C[C@@H]1C[C@H]2[C@@H]3CCC4=CC(=O)C=C[C@]4(C)[C@@]3(F)[C@@H](O)C[C@]2(C)[C@@]1(O)C(=O)CO` [dexamethasone] the “level of MeCP2 SUMOylation” value was “did not produce the same effect”.
